From PubChem BioAssay AID1259415 (National Center for Advancing Translational Sciences (NCATS), 2018)
The whole screen tested about 410,000 compounds, of which about 18,000 (4.4%) were called active. Inconclusive means that the source gave no clear call. Such entries were picked first, then a sample of the others. Cut-off read from the data, not from the text of the source: active = activity change below about -60%; inconclusive = no clear call, values can overlap the other calls; inactive = above about -39%.

experiment: qHTS Assay for inhibitors of the human cytomegalovirus (HCMV); conditions: HFF cells, HCMV-luciferase reporter, 72 h; at 57.5 µM; stronger effect = lower value
Method in brief: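 Cell-based, HFFs, 1000 cells/well, 16 h 37C; cpds in DMSO + HCMV-luc, MOI 1 PFU/cell; 72 h 37C; OneGlo luminescence after 5 min RT; norm. to buffer vs Salinomycin 10uM.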
% is set by controls: 0 for no effect and ±100 for the full control effect.

| Compound | activity change, negative = inhibition |
| --- | --- |
| CC1CCCN(C(=O)c2ccc3c(=O)n(Cc4ccc5c(c4)OCO5)c(=S)[nH]c3c2)C1 (stereo not given) | active: -86.8% |
| O=C(N/N=C/c1ccc(Cl)cc1)c1n[nH]c2c1CCCC2 | active: -90.6% |
| O=C(C1CCN(S(=O)(=O)N2CCC3(CC2)OCCO3)CC1)N1CCc2ccccc2C1 | inactive: 51.6% |
| CO/N=C(/C)CCS(=O)(=O)c1ccccc1 | inconclusive: -41.1% |
| COc1ccccc1OCCC(=O)Nc1nc(C)cs1 | inconclusive: -45.1% |
| c1ccc(N(c2ccccc2)c2nc(N3CCCC3)nc(-n3ccnc3)n2)cc1 | active: -66.3% |
| CCn1c(-c2sc(-c3ccccc3)nc2C)n[nH]c1=S | inconclusive: -49.7% |
| CC(C)(C)NC(=S)NCc1ccncc1 | inconclusive: -43.5% |
| Cc1cccc(C(=O)Nc2ccc3oc(-c4ccncc4)nc3c2)c1 | inconclusive: -46.7% |
| CN(C(=O)c1cccc(N2C(=O)C3CC=CCC3C2=O)c1)C1CCCCC1 (stereo not given) | inactive: 9.03% |
| COc1cccc(N2CCN(Cc3nc4scc(-c5ccccc5)c4c(=O)[nH]3)CC2)c1 | active: -61.5% |
| O=[N+]([O-])c1cccc(N/N=C/c2ccc(N3CCOCC3)cc2)c1 | inconclusive: -49.9% |
| Cc1ccc(NC(=O)CN(c2ccc3c(c2)OCO3)S(=O)(=O)c2c(C)n[nH]c2C)cc1 | inconclusive: -49.4% |
| Cn1c(SCc2ccccc2Br)nc2ccccc2c1=O | inactive: -25.6% |
| CCC(C)NC(=O)[C@H](CSCc1ccccc1)N1Cc2ccccc2C1=O (stereo not given in full) | inconclusive: -51.5% |
| CCN(C(=O)c1cn(-c2ccc(OC)cc2)c(=O)c2ccccc12)c1cccc(Cl)c1 | inconclusive: -46.3% |
| O=[N+]([O-])c1cc(/C=N\Nc2nc(-c3ccccc3)cs2)ccc1O | inactive: -11% |
| COC(=O)c1ccc(NC(c2ccc(Cl)cc2)P(=O)(OC)OC)cc1 (stereo not given) | inconclusive: -44.1% |
| Cc1cc(C)c(C#N)c(SCS(=O)c2ccc(C(C)(C)C)cc2)n1 (stereo not given) | inconclusive: -43.1% |
| Cc1c(-c2ccc(OCCN3CCOCC3)cc2)c(=O)oc2ccc3ccccc3c12 | inactive: -14.6% |
| COc1ccc(CNC(=O)CN(Cc2ccccc2Cl)C(=O)c2csnn2)cc1 | inconclusive: -41.6% |
| CC1=C(C(=O)OC(C)C)C(C)C(C(=O)OC(C)C)=C(C)N1 | inactive: -20.8% |
| COc1ccccc1Cn1c(C)c(C(=O)NCc2ccc3c(c2)OCCO3)sc1=O | inconclusive: -40.8% |
| Cc1ccc(NC(=S)N(CCCN2CCC(C)CC2)Cc2ccco2)cc1C | inactive: -24% |
| CSc1cccc(NC(C)C(=O)NCc2ccccc2)c1 (stereo not given) | active: -64.6% |
| Cc1ncc(CO)c(CNc2ccc(Oc3ccccc3)cc2)c1O | active: -70.1% |
| COc1ccc(-n2c(/C=C/c3c(C)[nH]c4ccccc34)nc3ccccc3c2=O)cc1 | inactive: 4.29% |
| COC(=O)COc1ccc(S(=O)(=O)Nc2ccc3c(c2)OCCO3)cc1C | inconclusive: -46.4% |

| Compound | activity change, negative = inhibition |
| --- | --- |
| O=C(O)c1ccc(Cn2c(SCc3cc(=O)n4cc(Br)ccc4n3)nc3ccsc3c2=O)cc1 | inconclusive: -50.3% |
| Cc1cccc(C(C)C)c1NC(=O)c1c(-c2ccccc2)noc1C | active: -62.4% |
| S=c1[nH]nc(C2CCCCC2)n1/N=C/c1ccccc1Br | inconclusive: -50.9% |
| Cc1ccc(CNC(=O)COc2ccccc2-c2ccccc2)cc1 | inconclusive: -49.1% |
| C=C(C)C1CC=C(C)/C(=N/NC(=O)COc2ccc(C)cc2)C1 (stereo not given) | inconclusive: -48.8% |
| COc1ccc([N+](=O)[O-])cc1NCc1cccnc1 | inactive: 10.5% |
| CCOC(=O)c1sc(=NC(=O)c2cc(OC)c(OC)c(OC)c2)n(C)c1C | inconclusive: -46.8% |
| O=C(CCCN1C(=O)c2cccc3cccc(c23)C1=O)N1CCN(c2ccccc2)CC1 | inconclusive: -49.4% |
| COc1ccc(C)cc1-n1nc2ccccc2n1 | inconclusive: -43.3% |
| O=C(Nc1ccc(CN2CCOCC2)cc1)c1ccc(-c2ccc(Br)cc2)o1 | inconclusive: -45.1% |
| Cc1ccc(S(=O)(=O)Oc2ccc(/C=N/NC(=O)c3nn(C)cc3[N+](=O)[O-])cc2)cc1 | inconclusive: -49.9% |
| COc1ccc(C(=O)/C=C/C(=O)N(CC(=O)NC2CCCCC2)Cc2ccccc2)c(O)c1 | active: -99.2% |
| COc1cc(/C=N/NC(=S)Nc2cccc(S(=O)(=O)N(C)C)c2)ccc1O | inconclusive: -43.1% |
| COc1cc2c(cc1OC)-c1cc(Nc3ccc(N(C)C)cc3)nc(=O)n1CC2 | inconclusive: -45.1% |
| CCOc1ccc(NC(=O)N(C(C)C)C2CCN(C(C)=O)CC2)cc1 | inactive: -16.9% |
| CSc1ncccc1C(=O)N1CCN(S(=O)(=O)c2ccc(F)cc2)CC1 | inactive: 6.74% |
| CC(C)CNc1c2c(nc3ccccc13)CCC2 | active: -68.2% |
| C=C1C(=O)[C@@]23C[C@H]4[C@@H]5[C@@]6(C)CCC[C@@]57[C@@H]2[C@@H](O)[C@@H]1C[C@H]3[C@H]7N4C6 | active: -77% |
| CCCNC(=S)N1CCN(c2nc(-c3cccc(OC)c3)cs2)CC1 | inactive: -33.7% |
| COc1ccccc1NC(=S)N(Cc1ccco1)Cc1cc2ccc(C)c(C)c2[nH]c1=O | inconclusive: -55.3% |
| Cc1cc2cc(C#N)c(SCC(=O)Nc3nonc3C)nc2cc1C | inconclusive: -44.6% |
| COc1ccc(S(=O)(=O)N2CCN(CC(=O)Nc3ccc(Cl)c(C(F)(F)F)c3)CC2)cc1 | inconclusive: -51.8% |
| COC(=O)C1=C(C)N(Cc2ccc(C(F)(F)F)cc2)C(=NCc2ccc3c(c2)OCO3)NC1c1cccc(Cl)c1 (stereo not given) | active: -100% |
| COc1ccccc1NC(=O)CCc1nc(-c2ccccc2F)no1 | inactive: 2.6% |
| NC(=O)c1ccccc1NC(=O)Cn1nc(Cc2cccnc2)c2ccccc2c1=O | inconclusive: -52.9% |
| CCOc1ccc(CNC(=O)c2sc3ncnc(N(C)C4CCCCC4)c3c2C)cc1 | inactive: -18.1% |
| Cc1cc(OC(=O)c2cc(Cl)ccc2Cl)c([N+](=O)[O-])c(=O)[nH]1 | inconclusive: -55% |

Quoted from the results shown (2 entries):

| Compound | activity change, negative = inhibition |
| --- | --- |
| Cc1cccc(C(C)C)c1NC(=O)c1c(-c2ccccc2)noc1C | active: -62.4% |
| S=c1[nH]nc(C2CCCCC2)n1/N=C/c1ccccc1Br | inconclusive: -50.9% |
